The target in experiment [1] is TβR-I(LB), TβR-I with the BMPR-I L45 loop, with TβR-II (UniProt P36897). Put plainly: co-precipitation of 125I-TGF-β1-labeled receptors with Flag-Smad1(1-454) (FIG. 20A).
Experiment [2] deals with BMP receptor complex (wild type BMPR-IB and BMPR-II) (human) (UniProt O00238+Q13873). Put plainly: co-precipitation of labeled wild type BMP receptors with Flag-Smad1(1-454) (FIG. 20A).
Experiment [3] concerns the target TGF-β receptor complex (wild type TβR-I and TβR-II) (UniProt P36897). Nature of the experiment: co-IP of labeled receptors.
Experiment [4] has the same target. Nature of the experiment: co-IP of labeled receptors (FIG. 12A).
Experiment [5] shares this target. Nature of the experiment: co-IP of labeled receptors (FIG. 14B).
The target in experiment [6] is T1, Fast1 (DNA-binding factor, forkhead family) (UniProt P70056).
T1 sequence (looked up): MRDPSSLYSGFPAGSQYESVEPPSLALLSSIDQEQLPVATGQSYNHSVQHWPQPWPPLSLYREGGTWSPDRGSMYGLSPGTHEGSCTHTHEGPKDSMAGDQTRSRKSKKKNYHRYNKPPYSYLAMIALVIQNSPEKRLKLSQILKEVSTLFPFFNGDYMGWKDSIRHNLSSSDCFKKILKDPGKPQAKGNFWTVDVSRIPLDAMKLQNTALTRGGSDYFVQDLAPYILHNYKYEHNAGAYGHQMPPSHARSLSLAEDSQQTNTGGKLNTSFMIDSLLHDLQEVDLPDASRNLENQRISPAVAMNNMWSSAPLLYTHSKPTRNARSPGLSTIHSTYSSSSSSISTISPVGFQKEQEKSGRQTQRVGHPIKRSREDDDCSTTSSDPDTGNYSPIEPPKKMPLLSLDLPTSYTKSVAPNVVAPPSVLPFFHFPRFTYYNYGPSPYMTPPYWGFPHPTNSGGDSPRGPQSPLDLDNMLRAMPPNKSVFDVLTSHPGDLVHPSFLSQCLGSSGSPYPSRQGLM
Nature of the experiment: co-IP of myc-Fast1 with Flag-Smad.

The chains behind the UniProt entries cited, without tags or fusion partners. Where a name states a change or a piece, a line headed by the entry shows the natural chain unless it says otherwise.
UniProt P36897: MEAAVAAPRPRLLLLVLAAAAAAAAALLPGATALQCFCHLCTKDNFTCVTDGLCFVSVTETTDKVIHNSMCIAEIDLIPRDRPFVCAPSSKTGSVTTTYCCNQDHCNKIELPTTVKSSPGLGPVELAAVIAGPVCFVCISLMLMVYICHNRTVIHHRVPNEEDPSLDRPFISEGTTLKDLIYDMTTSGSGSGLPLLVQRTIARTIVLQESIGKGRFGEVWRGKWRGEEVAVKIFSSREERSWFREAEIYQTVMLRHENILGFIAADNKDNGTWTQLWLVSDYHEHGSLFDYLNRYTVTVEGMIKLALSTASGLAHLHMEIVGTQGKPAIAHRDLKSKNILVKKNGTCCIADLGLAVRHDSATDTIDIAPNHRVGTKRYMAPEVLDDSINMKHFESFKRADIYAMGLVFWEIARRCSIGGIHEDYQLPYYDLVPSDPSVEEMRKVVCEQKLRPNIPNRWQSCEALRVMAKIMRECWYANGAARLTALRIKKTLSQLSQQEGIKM
UniProt O00238: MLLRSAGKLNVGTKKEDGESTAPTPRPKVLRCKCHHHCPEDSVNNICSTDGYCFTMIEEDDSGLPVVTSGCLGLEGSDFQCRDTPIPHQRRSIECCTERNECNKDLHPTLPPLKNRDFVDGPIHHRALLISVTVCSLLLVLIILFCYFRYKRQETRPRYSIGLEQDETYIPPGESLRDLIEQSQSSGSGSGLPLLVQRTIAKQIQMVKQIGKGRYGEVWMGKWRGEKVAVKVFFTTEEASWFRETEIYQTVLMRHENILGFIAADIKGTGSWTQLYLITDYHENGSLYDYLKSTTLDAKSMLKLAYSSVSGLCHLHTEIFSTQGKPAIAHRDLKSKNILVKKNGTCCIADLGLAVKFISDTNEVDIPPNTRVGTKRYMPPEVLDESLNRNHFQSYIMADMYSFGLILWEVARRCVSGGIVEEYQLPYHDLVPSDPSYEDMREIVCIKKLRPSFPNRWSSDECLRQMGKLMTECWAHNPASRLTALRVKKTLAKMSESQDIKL
UniProt Q13873: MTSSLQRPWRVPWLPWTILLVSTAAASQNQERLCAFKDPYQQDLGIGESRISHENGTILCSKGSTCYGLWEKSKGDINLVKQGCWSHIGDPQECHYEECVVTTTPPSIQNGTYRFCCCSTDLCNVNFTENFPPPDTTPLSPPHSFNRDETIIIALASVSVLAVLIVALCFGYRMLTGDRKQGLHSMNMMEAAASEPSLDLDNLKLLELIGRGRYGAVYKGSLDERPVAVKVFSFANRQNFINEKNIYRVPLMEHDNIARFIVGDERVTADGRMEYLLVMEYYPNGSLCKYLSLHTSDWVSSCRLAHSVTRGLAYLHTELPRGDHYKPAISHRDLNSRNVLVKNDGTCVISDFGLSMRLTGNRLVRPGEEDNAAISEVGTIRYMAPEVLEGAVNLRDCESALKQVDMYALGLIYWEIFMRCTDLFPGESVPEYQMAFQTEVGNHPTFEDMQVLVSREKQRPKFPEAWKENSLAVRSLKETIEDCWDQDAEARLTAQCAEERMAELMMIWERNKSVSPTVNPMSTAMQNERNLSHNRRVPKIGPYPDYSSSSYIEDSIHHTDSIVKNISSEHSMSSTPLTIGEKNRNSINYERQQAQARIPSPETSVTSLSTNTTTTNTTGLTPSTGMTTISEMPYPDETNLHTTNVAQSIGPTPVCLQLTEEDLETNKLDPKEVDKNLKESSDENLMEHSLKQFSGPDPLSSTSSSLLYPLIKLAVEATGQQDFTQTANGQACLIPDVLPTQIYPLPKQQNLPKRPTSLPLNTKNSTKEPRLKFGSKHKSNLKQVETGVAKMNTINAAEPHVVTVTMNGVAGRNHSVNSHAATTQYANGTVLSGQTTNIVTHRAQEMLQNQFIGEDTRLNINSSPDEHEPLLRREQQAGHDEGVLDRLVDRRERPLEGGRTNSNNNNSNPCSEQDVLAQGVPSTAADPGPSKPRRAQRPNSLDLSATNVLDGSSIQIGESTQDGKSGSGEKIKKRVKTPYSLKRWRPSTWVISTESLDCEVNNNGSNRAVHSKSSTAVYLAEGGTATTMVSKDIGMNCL
UniProt Q15797: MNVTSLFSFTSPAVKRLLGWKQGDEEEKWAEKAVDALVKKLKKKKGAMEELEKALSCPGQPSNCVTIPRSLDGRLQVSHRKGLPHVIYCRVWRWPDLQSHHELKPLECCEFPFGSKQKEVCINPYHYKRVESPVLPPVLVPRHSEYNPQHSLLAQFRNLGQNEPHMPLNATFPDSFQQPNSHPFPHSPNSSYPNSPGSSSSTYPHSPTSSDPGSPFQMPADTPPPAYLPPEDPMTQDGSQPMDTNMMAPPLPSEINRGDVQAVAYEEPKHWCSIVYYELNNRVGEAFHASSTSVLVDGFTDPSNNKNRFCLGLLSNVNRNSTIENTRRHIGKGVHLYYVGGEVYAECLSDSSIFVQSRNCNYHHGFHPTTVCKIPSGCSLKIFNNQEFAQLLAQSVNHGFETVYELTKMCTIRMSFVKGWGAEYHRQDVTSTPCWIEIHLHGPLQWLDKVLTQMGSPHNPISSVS
UniProt Q15796: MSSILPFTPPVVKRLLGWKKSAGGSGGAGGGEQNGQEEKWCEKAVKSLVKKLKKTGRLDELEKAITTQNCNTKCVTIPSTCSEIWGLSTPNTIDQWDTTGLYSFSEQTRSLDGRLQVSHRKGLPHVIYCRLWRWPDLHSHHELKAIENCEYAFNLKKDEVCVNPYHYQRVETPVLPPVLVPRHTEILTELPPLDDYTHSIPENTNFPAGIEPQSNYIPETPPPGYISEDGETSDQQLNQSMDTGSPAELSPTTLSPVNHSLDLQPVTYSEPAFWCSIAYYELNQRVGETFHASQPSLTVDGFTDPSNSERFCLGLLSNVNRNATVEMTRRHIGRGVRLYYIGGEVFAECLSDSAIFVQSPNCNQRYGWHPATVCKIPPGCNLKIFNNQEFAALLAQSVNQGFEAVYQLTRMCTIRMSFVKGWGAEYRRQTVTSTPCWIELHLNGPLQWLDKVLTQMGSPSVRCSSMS

The target in experiment [7] is TGF-β receptor complex (wild type TβR-I and TβR-II) (UniProt P36897). Nature of the experiment: co-IP of 125I-TGF-β1 cross-linked receptors with Flag-Smad2.

No constants are given. Whether binding was seen depends on the method and setting. In cells and extracts the contact can be indirect. Some binding calls cover weakened binding; strength is not graded here.

As to “Smad1(1-454), Smad1 lacking the last 11 amino acids (from UniProt Q15797 1-454)”, the binding entry in experiment [1] and in experiment [2] was “binds” in each case.

Turning to “Smad2 A392Q (from UniProt Q15796 272-467)”, the binding entry in experiment [3] is recorded as “binds”.

Take “Smad2 A404T (from UniProt Q15796 272-467)”: in experiment [3], the binding entry is given as “binds”.

For the substance “Smad2 P360R (from UniProt Q15796 272-467)”, in experiment [3], the binding result is given as “binds”.

Regarding “Smad2 Q407E (from UniProt Q15796 272-467)”, the binding result in experiment [3] is recorded as “binds”.

For “Smad2 W368F (from UniProt Q15796 272-467)”, the binding entry in experiment [3] is reported as “binds”.

For “Smad2(D450E) (from UniProt Q15796 272-467)”, in experiment [4], the binding entry was “binds”.

Turning to “Smad2, full-length, wild type (from UniProt Q15796 272-467)”, the binding result in experiment [5], in experiment [6] and in experiment [7] was “binds” in each case.
